Data as given in PubChem BioAssay AID1259308 (NCATS, 2017)

Aim: 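Knock-downs that increase output of a recombinant reporter protein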 (primary screen)
Cells: human HEK293 embryonic kidney cells stably expressing firefly luciferase (HEK-CMV-Luc2-Hygro)
Reagent: single siRNA against human genes, 0.8 pmol siRNA per well
Time to read-out: 72 h
Detection: 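Luciferase light (ONE-Glo) measured on one replicate plate set and viability (CellTiter-Glo) on the other, scaled to a negative control siRNA, with robust z-scores and luciferase per cell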
Direction: total luciferase, z-score: higher = more reporter protein produced
Call rule: 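An siRNA counts as active if its total luciferase robust z-score exceeds 3; genes with two or more such siRNAs out of three were retested with fresh siRNAs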
Calls: active = raised luciferase; inactive = no rise
This is one part, drawn at random, of about 59,000 deposited reagents. About 1,510 of them (2.6%) count as active. 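Calls use total luciferase alone and ignore viability, so some active siRNAs may act by altering cell number.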 Unmarked entries are inactive. Reagents against one gene are numbered here. Further read-outs or replicates are left out here. Reagent sequences are not shown.

total luciferase, z-score, by gene and reagent
ZNF460: #1 1.77; #2 0.045; #3 -0.7
C11orf40: #1 0.831; #2 2.95; #3 0.678
XRN2: #1 0.256; #2 -1.87; #3 -1.45
XKRY: #1 0.196; #2 0.325; #3 -0.0713
PGC: #1 3.95 (active); #2 -1.2; #3 0.677
HLA-C: #1 0.622; #2 -0.482; #3 0.568
ASIC4: #1 -0.368; #2 -0.79; #3 1.94
VAMP5: #1 -0.551; #2 0.12; #3 1.67
FRRS1: #1 0.414; #2 -0.283; #3 3.42 (active)
OR5V1: #1 0.536; #2 -0.959; #3 0.62
EEF1A1P48: #1 -1.26; #2 -0.844; #3 -1.07
KCNJ11: #1 -1.05; #2 -1.66; #3 -0.61
ADRB3: #1 0.444; #2 0.315; #3 -0.554
MPP2: #1 3.42 (active); #2 1.07; #3 -0.461
ACADM: #1 -0.682; #2 -0.2; #3 0.0587
SLC25A11: #1 1.51; #2 1.06; #3 0.277
LCN9: #1 0.575; #2 1.38; #3 -0.602
TXNL4B: #1 -0.197; #2 1.97; #3 1.32
ZNF296: #1 -0.469; #2 -1.29; #3 -1.73

A few values from the list.
Value for EEF1A1P48 #2 under “total luciferase, z-score”: -0.844
Result for MPP2 #2 under “total luciferase, z-score”: 1.07
C11orf40 #1, total luciferase, z-score → 0.831
Value of XKRY #3 in “total luciferase, z-score”: -0.0713
PGC #2, total luciferase, z-score = -1.2
For “total luciferase, z-score”, HLA-C #3 has 0.568
